The list shows a part of the results. The calls rarely recur for the same compound in another form.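 Kinases were expressed as nanoluciferase fusions in K562 cells and luminescence was read every 4 h between 2 and 18 h as percent of control, DMSO set to 100% and a positive control to 0%. A time point counts as decreased when the signal drops significantly (2 sigma). The hit call is the authors' own, does not follow from the count of time points alone, and its rule is not shown.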
How the values were obtained:
Assay in all cases: number of time points (of 5) at which kinase-Nluc abundance scored as decreased, DMSO-normalised (count); higher = more persistent destabilization
[1] = compound: CC(C)N(CCC(=O)c1ccc2ccccc2c1)Cc1ccccc1; conditions: 10 µM; K562; 2-18 h
[2] = compound: CC(C)[C@@](C)(O)[C@@H]1CN(c2nc(-c3[nH]nc4ncccc34)c(F)cc2Cl)CCN1; conditions: 10 µM; K562; 2-18 h
Torkinib = compound: CC(C)n1nc(-c2cc3cc(O)ccc3[nH]2)c2c(N)ncnc21 [Torkinib]; conditions: 2.5 µM; K562; 2-18 h
[3] = compound: CC1(C)C(=O)N([C@H]2CCc3c(O)cccc32)c2nc(Nc3cccc(CN4CCCC4)c3)ncc21; conditions: 2.5 µM; K562; 2-18 h
Motesanib (Diphosphate) = compound: CC1(C)CNc2cc(NC(=O)c3cccnc3NCc3ccncc3)ccc21 [Motesanib (Diphosphate)]; conditions: 2.5 µM; K562; 2-18 h
Motesanib = compound: CC1(C)CNc2cc(NC(=O)c3cccnc3NCc3ccncc3)ccc21 [Motesanib]; conditions: 2.5 µM; K562; 2-18 h
[4] = compound: CCCCCC1CC1CC1CC1CCCCCCCC(=O)OC; conditions: 10 µM; K562; 2-18 h
[5] = compound: CCCCCCCCCCCCc1ccc(S(=O)(=O)Nc2nncs2)cc1; conditions: 10 µM; K562; 2-18 h
[6] = compound: CCCOc1ccc(C=C2SC(=O)NC2=O)cc1; conditions: 10 µM; K562; 2-18 h
Sunitinib = compound: CCN(CC)CCNC(=O)c1c(C)[nH]c(/C=C2\C(=O)Nc3ccc(F)cc32)c1C [Sunitinib]; conditions: 2.5 µM; K562; 2-18 h

Protein sequences, listed by entry. Tags and fused reporters are not part of them. Lines headed by an entry give the natural chain unless they say otherwise; changes in a name come on top.
UniProt Q13555: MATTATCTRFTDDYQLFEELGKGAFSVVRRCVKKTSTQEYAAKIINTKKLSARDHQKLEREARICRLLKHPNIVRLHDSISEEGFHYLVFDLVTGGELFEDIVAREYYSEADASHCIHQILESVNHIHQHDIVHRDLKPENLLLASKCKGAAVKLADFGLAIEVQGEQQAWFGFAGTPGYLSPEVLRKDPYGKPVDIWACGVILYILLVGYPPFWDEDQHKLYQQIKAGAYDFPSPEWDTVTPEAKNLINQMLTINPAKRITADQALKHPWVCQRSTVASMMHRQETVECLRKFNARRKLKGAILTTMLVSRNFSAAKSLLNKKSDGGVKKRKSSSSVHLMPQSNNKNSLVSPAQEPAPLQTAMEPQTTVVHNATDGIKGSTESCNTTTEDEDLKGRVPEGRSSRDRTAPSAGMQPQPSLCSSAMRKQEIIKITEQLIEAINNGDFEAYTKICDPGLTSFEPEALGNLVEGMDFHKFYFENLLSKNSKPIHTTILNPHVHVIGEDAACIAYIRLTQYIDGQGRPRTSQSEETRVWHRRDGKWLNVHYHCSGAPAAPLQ
UniProt P41240: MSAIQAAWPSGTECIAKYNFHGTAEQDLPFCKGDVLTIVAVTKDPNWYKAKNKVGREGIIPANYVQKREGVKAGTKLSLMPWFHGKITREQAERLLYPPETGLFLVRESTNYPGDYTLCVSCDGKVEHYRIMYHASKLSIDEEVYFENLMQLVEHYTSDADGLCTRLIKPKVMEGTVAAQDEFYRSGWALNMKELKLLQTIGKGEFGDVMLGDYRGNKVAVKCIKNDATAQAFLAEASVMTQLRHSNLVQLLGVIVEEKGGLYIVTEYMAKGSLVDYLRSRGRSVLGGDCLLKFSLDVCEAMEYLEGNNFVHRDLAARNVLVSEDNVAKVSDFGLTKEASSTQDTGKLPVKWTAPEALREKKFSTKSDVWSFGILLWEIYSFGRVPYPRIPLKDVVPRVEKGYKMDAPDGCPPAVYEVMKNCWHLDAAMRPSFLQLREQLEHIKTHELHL
UniProt P22607, whole entry, looked up: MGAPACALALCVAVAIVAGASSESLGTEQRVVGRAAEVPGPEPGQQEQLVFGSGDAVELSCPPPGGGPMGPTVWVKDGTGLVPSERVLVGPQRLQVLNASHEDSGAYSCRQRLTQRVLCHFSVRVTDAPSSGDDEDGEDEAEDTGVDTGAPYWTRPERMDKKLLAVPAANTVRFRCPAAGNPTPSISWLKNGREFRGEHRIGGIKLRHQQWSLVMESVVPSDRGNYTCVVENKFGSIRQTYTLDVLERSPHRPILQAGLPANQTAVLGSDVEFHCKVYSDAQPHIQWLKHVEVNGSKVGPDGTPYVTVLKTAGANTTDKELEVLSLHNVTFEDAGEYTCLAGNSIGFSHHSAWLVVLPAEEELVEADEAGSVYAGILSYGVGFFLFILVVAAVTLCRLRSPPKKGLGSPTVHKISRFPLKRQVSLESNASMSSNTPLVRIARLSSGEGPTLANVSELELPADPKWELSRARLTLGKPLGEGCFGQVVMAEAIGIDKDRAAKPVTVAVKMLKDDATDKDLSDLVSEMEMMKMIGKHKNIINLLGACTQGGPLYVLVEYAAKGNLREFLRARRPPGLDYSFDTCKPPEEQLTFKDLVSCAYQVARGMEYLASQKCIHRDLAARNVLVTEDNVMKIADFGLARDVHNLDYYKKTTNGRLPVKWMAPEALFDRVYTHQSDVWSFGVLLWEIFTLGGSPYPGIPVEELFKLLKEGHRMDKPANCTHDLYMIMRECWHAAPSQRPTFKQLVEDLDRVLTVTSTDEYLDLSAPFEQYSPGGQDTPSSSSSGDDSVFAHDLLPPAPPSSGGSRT
UniProt P53671: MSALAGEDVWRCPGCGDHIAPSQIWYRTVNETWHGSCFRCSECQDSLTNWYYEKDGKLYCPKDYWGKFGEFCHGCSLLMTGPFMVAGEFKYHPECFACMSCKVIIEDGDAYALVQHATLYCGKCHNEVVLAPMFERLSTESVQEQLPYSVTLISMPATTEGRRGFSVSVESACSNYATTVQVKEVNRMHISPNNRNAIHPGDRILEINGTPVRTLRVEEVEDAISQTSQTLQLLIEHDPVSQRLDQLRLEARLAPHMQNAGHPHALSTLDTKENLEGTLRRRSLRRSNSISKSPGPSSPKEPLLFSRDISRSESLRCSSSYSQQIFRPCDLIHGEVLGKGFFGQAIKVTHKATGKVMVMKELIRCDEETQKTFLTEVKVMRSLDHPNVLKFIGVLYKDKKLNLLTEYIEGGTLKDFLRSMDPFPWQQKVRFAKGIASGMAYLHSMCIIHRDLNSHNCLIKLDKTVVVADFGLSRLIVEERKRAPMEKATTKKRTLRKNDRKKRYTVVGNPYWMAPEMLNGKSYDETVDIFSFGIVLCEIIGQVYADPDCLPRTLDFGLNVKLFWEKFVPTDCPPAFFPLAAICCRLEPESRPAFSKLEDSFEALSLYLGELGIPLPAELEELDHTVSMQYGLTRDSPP
UniProt P07949, whole entry M918T, looked up: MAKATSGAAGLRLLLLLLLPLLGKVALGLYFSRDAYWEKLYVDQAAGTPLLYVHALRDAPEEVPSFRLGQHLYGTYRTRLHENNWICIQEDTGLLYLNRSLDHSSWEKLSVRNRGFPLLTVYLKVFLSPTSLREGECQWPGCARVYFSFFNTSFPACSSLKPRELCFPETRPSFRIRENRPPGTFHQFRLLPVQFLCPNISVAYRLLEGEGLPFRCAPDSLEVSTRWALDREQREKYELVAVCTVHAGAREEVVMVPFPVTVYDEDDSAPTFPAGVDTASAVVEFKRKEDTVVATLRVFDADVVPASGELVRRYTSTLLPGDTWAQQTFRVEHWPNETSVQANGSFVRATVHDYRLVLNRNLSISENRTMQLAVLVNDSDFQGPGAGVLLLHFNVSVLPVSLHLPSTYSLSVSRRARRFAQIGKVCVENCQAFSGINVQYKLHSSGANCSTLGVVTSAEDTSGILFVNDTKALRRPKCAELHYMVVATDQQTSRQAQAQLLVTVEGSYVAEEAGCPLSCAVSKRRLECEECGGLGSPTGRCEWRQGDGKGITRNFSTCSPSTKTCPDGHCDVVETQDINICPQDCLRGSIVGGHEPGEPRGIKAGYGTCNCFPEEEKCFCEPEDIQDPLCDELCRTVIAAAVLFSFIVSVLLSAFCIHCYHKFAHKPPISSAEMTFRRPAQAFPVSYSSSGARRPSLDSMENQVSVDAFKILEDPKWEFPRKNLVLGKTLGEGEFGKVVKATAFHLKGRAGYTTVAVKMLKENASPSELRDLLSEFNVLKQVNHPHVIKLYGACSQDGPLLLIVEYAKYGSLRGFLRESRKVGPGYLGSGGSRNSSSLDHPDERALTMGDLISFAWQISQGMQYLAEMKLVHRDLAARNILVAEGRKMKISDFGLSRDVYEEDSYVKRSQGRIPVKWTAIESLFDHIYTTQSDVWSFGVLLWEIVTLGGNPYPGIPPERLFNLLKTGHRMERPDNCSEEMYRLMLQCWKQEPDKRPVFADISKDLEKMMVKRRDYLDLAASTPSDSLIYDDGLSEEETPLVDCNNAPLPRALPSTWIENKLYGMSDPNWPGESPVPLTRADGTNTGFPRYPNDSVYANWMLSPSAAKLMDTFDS
UniProt O14965: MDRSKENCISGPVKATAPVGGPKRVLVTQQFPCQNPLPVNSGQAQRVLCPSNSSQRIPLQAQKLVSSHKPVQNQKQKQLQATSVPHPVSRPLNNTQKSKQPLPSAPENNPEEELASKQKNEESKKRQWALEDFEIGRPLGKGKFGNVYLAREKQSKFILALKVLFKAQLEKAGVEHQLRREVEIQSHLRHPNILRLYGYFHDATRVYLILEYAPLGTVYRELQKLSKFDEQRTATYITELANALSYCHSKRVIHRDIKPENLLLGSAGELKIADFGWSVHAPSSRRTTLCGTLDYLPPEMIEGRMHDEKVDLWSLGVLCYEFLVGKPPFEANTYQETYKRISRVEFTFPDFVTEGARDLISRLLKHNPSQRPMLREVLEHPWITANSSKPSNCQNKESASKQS
UniProt P43403: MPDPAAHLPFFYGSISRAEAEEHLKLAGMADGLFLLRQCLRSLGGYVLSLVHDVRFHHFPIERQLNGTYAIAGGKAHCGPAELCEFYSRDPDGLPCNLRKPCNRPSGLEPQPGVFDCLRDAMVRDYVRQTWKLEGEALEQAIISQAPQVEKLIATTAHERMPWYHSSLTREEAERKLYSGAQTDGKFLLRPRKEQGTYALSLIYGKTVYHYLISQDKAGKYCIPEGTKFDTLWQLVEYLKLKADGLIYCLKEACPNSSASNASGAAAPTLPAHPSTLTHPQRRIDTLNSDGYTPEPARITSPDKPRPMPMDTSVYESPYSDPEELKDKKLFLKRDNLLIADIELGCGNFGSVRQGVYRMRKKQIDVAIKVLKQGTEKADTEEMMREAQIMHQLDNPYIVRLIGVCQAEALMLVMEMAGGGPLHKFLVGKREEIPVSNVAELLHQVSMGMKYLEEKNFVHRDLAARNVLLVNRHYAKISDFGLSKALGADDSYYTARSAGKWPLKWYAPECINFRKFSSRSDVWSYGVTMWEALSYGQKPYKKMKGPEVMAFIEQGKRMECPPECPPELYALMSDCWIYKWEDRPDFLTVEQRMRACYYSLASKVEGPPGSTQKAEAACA
UniProt O96017, whole entry: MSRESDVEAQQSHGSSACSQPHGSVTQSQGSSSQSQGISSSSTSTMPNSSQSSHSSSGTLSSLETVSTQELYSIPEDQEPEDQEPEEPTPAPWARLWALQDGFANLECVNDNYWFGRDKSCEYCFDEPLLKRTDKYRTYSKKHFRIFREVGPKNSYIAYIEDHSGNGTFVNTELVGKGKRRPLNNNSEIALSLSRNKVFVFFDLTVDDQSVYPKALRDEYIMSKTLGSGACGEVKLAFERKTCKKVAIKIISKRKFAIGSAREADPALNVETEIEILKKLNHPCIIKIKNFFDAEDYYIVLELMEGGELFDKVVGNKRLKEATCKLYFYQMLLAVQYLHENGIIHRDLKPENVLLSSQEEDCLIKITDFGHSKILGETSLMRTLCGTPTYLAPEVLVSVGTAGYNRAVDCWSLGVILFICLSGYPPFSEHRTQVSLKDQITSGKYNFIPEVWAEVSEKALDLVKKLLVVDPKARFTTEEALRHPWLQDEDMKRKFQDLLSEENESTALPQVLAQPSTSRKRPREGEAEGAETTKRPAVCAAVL
UniProt P15056, whole entry, looked up: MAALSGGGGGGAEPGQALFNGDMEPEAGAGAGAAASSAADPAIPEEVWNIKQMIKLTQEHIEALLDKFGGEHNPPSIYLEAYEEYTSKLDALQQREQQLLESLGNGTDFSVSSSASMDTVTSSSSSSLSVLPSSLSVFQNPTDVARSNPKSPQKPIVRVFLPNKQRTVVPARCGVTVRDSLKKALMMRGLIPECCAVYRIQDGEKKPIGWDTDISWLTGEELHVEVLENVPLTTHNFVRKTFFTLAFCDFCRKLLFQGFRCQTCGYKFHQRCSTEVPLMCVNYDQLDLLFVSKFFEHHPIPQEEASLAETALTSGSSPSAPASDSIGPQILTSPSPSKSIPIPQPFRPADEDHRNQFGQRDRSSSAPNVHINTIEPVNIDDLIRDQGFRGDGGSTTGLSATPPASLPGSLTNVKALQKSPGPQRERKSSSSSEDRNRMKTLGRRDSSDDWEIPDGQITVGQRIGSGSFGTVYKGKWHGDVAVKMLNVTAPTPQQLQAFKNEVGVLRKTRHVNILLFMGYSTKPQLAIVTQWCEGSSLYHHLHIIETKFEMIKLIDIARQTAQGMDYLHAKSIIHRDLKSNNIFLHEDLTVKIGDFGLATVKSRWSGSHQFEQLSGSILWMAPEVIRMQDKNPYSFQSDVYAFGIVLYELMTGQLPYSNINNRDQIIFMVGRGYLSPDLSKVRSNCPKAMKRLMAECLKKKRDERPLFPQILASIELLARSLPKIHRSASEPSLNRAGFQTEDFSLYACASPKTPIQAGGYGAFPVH
UniProt P31749: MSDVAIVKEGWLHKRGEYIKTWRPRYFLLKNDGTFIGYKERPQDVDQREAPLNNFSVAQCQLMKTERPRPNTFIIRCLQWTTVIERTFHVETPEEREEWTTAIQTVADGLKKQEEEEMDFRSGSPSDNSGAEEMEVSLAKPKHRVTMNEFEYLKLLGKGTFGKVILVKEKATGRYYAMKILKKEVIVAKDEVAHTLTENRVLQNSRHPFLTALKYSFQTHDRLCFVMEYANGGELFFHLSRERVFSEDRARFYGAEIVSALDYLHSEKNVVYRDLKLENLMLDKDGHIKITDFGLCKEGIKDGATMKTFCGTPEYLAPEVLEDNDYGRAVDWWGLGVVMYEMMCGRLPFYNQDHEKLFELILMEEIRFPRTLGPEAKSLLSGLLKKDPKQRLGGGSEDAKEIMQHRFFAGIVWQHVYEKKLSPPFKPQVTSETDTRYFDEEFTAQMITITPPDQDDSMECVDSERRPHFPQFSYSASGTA

Row | Target | number of time points [1] | number of time points [2] | number of time points (Torkinib) | number of time points [3] | number of time points (Motesanib (Diphosphate)) | number of time points (Motesanib) | number of time points [4] | number of time points [5] | number of time points [6] | number of time points (Sunitinib)
1 | PLK1 (UniProt P53350) | 0 | 0 | 0 | 0 | 0 | 0 | 0 | 0 | 0 | 0
2 | FYN (UniProt P06241) | 0 | 0 | 1 | 3 | 0 | 0 | 0 | 0 | 0 | 3
3 | ALK (UniProt Q9UM73) | 0 | 2 | 0 | 3 | 0 | 0 | 0 | 0 | 0 | 0
4 | HER2 (UniProt P04626) | 0 | 2 | 0 | 3 | 0 | 0 | 0 | 0 | 0 | 0
5 | CDK6 (UniProt Q00534) | 0 | 0 | 0 | 0 | 0 | 0 | 0 | 0 | 0 | 0
6 | LIMK1 (UniProt P53667) | 0 | 4 | 0 | 0 | 0 | 0 | 0 | 0 | 0 | 0
7 | CAMK2G (UniProt Q13555) | 0 | 3 | 0 | 2 | 0 | 0 | 0 | 0 | 0 | 0
8 | CSK (UniProt P41240) | 0 | 0 | 0 | 0 | 0 | 0 | 0 | 0 | 0 | 0
9 | PRKCA (UniProt P17252) | 0 | 0 | 0 | 0 | 0 | 0 | 0 | 0 | 0 | 0
10 | ROR2 (UniProt Q01974) | 0 | 0 | 0 | 0 | 0 | 0 | 0 | 0 | 0 | 0
11 | INSRR (UniProt P14616) | 0 | 0 | 0 | 4 | 0 | 0 | 0 | 0 | 0 | 0
12 | EPHA2 (UniProt P29317) | 0 | 0 | 0 | 2 | 0 | 0 | 0 | 0 | 0 | 0
13 | FLT3 (UniProt P36888) | 0 | 0 | 0 | 4 | 0 | 0 | 0 | 0 | 0 | 0
14 | FGFR3 (UniProt P22607) | 0 | 0 | 0 | 2 | 0 | 0 | 0 | 0 | 0 | 0
15 | BTK (UniProt Q06187) | 0 | 0 | 0 | 0 | 0 | 0 | 0 | 0 | 0 | 0
16 | RIPK2 (UniProt O43353) | 0 | 0 | 3 | 0 | 0 | 0 | 0 | 0 | 0 | 0
17 | PDK1 (UniProt Q15118) | 0 | 0 | 0 | 0 | 0 | 0 | 0 | 0 | 0 | 0
18 | LIMK2 (UniProt P53671) | 0 | 3 | 1 | 0 | 0 | 0 | 0 | 0 | 0 | 0
19 | PIK4CB (UniProt Q9UBF8) | 0 | 0 | 0 | 3 | 0 | 0 | 0 | 0 | 0 | 0
20 | RET_M918T (clone: RET_mut) (UniProt P07949) | 0 | 0 | 0 | 3 | – | – | 0 | 0 | 0 | 0
21 | EGFR_T790M (UniProt P00533) | 0 | 0 | – | 0 | – | – | 0 | 0 | 0 | –
22 | EGFR_L861Q (UniProt P00533) | 0 | 0 | – | 3 | – | – | 0 | 0 | 0 | –
23 | CSF1R (UniProt P07333) | 0 | 0 | 0 | – | – | – | 0 | 0 | 0 | 0
24 | EGFR_L858R (UniProt P00533) | 0 | 0 | – | 3 | – | – | 0 | 0 | 0 | –
25 | EGFR_G719S (UniProt P00533) | 0 | 3 | – | 3 | – | – | 0 | 0 | 0 | –

For convenience, some entries already given:
Row | Target | number of time points [1] | number of time points [2] | number of time points (Torkinib) | number of time points [3] | number of time points (Motesanib (Diphosphate)) | number of time points (Motesanib) | number of time points [4] | number of time points [5] | number of time points [6] | number of time points (Sunitinib)
5 | CDK6 (UniProt Q00534) | 0 | 0 | 0 | 0 | 0 | 0 | 0 | 0 | 0 | 0
6 | LIMK1 (UniProt P53667) | 0 | 4 | 0 | 0 | 0 | 0 | 0 | 0 | 0 | 0

The results go on:

Row | Target | number of time points [1] | number of time points [2] | number of time points (Torkinib) | number of time points [3] | number of time points (Motesanib (Diphosphate)) | number of time points (Motesanib) | number of time points [4] | number of time points [5] | number of time points [6] | number of time points (Sunitinib)
26 | AURKA (UniProt O14965) | – | 3 | 0 | 3 | 0 | 0 | – | – | 0 | 0
27 | ERN1 (UniProt O75460) | 0 | 0 | 0 | 2 | 0 | 0 | 0 | 1 | 0 | 0
28 | ABL1 (UniProt P00519) | 0 | 3 | – | – | – | – | 0 | 0 | 0 | –
29 | FGFR1 (UniProt P11362) | 0 | 0 | 0 | 2 | – | – | 0 | 0 | 0 | 0
30 | ZAP70 (UniProt P43403) | 0 | 0 | 0 | 0 | 0 | 0 | 0 | 0 | 0 | 0
31 | RAF1_S257L (clone: RAF1_mut) (UniProt P04049) | 0 | 0 | 2 | 4 | 0 | 0 | 0 | 0 | 0 | 0
32 | MAP2K1 (UniProt Q02750) | 0 | 0 | 0 | 0 | 0 | 0 | 0 | 0 | 0 | 0
33 | CHEK2 (UniProt O96017) | 0 | 3 | 0 | 0 | 0 | 0 | 0 | 0 | 0 | 0
34 | BRAF (UniProt P15056) | 0 | 0 | 0 | 1 | – | – | 3 | 2 | 0 | 0
35 | PRKAA1 (UniProt Q13131) | 0 | 0 | 0 | – | 0 | 0 | 0 | 0 | 0 | 0
36 | LMTK2 (UniProt Q8IWU2) | 0 | 0 | 0 | 4 | 0 | 0 | 0 | 0 | 0 | 0
37 | LCK (UniProt P06239) | 0 | 0 | 0 | 0 | – | – | 0 | 0 | 0 | –
38 | DDR1 (UniProt Q08345) | 0 | 2 | 0 | 4 | – | – | 0 | 0 | 0 | 3
39 | RET (UniProt P07949) | 0 | 0 | 0 | 3 | – | – | 0 | 0 | 0 | 1
40 | NTRK2 (UniProt Q16620) | 0 | 0 | – | – | 0 | 0 | 0 | 5 | 0 | 0
41 | AKT1 (UniProt P31749) | 0 | 0 | 0 | 0 | 0 | 0 | – | – | 0 | 0
42 | TEC (UniProt P42680) | 0 | 0 | 0 | 0 | 0 | 0 | 0 | 0 | 0 | 0
43 | EGFR_G719S_T790M (UniProt P00533) | 0 | 0 | – | 3 | – | – | 0 | 0 | 0 | –
44 | SRC (UniProt P12931) | 0 | 0 | – | 0 | 0 | 0 | 0 | 0 | 0 | –
45 | EGFR_L718V (UniProt P00533) | 0 | 0 | – | 1 | – | – | 0 | 0 | 0 | –
46 | LYN (UniProt P07948) | 0 | 0 | 0 | – | – | – | 0 | 0 | 0 | 0
47 | EGFR (UniProt P00533) | 0 | 2 | – | 2 | – | – | 0 | 0 | 0 | –
48 | ERBB4_R711C (clone: ERBB4_mut) (UniProt Q15303) | 0 | 0 | 0 | 4 | 0 | 0 | 0 | 0 | 0 | 0
49 | RAF1 (UniProt P04049) | 0 | 0 | 0 | 4 | 0 | 0 | 0 | 0 | 0 | 0
50 | BMX (UniProt P51813) | 0 | – | – | 1 | 0 | 0 | 0 | 0 | – | 0

Source: the supplement of paper PMC12823440, “Inhibitors supercharge kinase turnover through native proteolytic circuits” (Nature, 2025)
